# Results as given in the supplement of paper PMC8728848.
# The other results are listed elsewhere or left out.
# B1: DC-Sign-R (Homo sapiens), Q9H2X3 (protein)
# chain: MSDSKEPRVQQLGLLEEDPTTSGIRLFPRDFQFQQIHGHKSSTGCLGHGALVLQLLSFMLLAGVLVAILVQVSKVPSSLSQEQSEQDAIYQNLTQLKAAVGELSEKSKLQEIYQELTQLKAAVGELPEKSKLQEIYQELTRLKAAVGELPEKSKLQEIYQELTRLKAAVGELPEKSKLQEIYQELTRLKAAVGELPEKSKLQEIYQELTELKAAVGELPEKSKLQEIYQELTQLKAAVGELPDQSKQQQIYQELTDLKTAFERLCRHCPKDWTFFQGNCYFMSNSQRNWHDSVTACQEVRAQLVVIKTAEEQNFLQLQTSRSNRFSWMGLSDLNQEGTWQWVDGSPLSPSFQRYWNSGEPNNSGNEDCAEFSGSGWNDNRCDVDNYWICKKPAACFRDE
# Tests used:
# Experiment in all cases: glycan array binding signal (z-score within array); higher = stronger binding
# Details in all cases: glycan notation: IUPAC condensed, linker removed
# [1] = target: Fuc(a1-2)[GalNAc(b1-3)]Gal
# Outline: (§1)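 Arrays were curated from the Consortium for Functional Glycomics database, 3228 in total, and kept only where the protein sequence was available. Binding is expressed as a within-array Z-score. This score was averaged across arrays of the same protein sequence at different concentrations or buffers and across linkers, and negative values can be read as non-binding.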
# [2] = target: Fuc(a1-3)GlcNAc
# Outline: as §1
# [3] = target: Fuc(a1-3)[Gal(b1-4)]Glc6S
# Outline: as §1
# [4] = target: Fuc(a1-3)[Gal(b1-4)]GlcNAc
# Outline: as §1
# [5] = target: Fuc(a1-3)[Gal(b1-4)]GlcNAc(b1-2)Man
# Outline: as §1
# [6] = target: Fuc(a1-3)[Gal(b1-4)]GlcNAc(b1-2)Man(a1-3)[Fuc(a1-3)[Gal(b1-4)]GlcNAc(b1-2)Man(a1-6)]Man(b1-4)GlcNAc(b1-4)GlcNAc
# Outline: as §1
# [7] = target: Fuc(a1-3)[Gal(b1-4)]GlcNAc(b1-2)Man(a1-3)[Fuc(a1-3)[Gal(b1-4)]GlcNAc(b1-2)Man(a1-6)]Man(b1-4)GlcNAc(b1-4)[Fuc(a1-6)]GlcNAc
# Outline: as §1
# [8] = target: Fuc(a1-3)[Gal(b1-4)]GlcNAc(b1-3)Gal(b1-3)[Fuc(a1-4)]GlcNAc
# Outline: as §1
# [9] = target: Fuc(a1-3)[Gal(b1-4)]GlcNAc(b1-3)Gal(b1-4)[Fuc(a1-3)]GlcNAc
# Outline: as §1
# [10] = target: Fuc(a1-3)[Gal(b1-4)]GlcNAc(b1-3)Gal(b1-4)[Fuc(a1-3)]GlcNAc(b1-3)Gal(b1-4)[Fuc(a1-3)]GlcNAc
# Outline: as §1
# [11] = target: Fuc(a1-3)[Gal(b1-4)]GlcNAc(b1-3)GalNAc
# Outline: as §1
# [12] = target: Fuc(a1-3)[Gal(b1-4)]GlcNAc(b1-6)GalNAc
# Outline: as §1
# [13] = target: Fuc(a1-3)[Gal(b1-4)]GlcNAc(b1-6)[Gal(b1-3)GlcNAc(b1-3)]Gal(b1-4)Glc
# Outline: as §1
# [14] = target: Fuc(a1-3)[Gal(b1-4)]GlcNAc6S
# Outline: as §1
# [15] = target: Fuc(a1-3)[Gal3S(b1-4)]Glc
# Outline: as §1
# [16] = target: Fuc(a1-3)[Gal3S(b1-4)]GlcNAc
# Outline: as §1
# [17] = target: Fuc(a1-3)[Gal3S(b1-4)]GlcNAc6S
# Outline: as §1
# [18] = target: Fuc(a1-3)[GalNAc(b1-4)]GlcNAc
# Outline: as §1
# [19] = target: Fuc(a1-3)[GalNAc(b1-4)]GlcNAc6S
# Outline: as §1
# [20] = target: Fuc(a1-4)GlcNAc
# Outline: as §1
# [21] = target: Fuc(b1-3)GlcNAc
# Outline: as §1
# [22] = target: Gal(a1-2)Gal
# Outline: as §1
# [23] = target: Gal(a1-3)Gal
# Outline: as §1
# [24] = target: Gal(a1-3)Gal(b1-3)GlcNAc
# Outline: as §1
# [25] = target: Gal(a1-3)Gal(b1-3)GlcNAc(b1-2)Man
# Outline: as §1
# [26] = target: Gal(a1-3)Gal(b1-3)GlcNAc(b1-2)Man(a1-3)[Gal(a1-3)Gal(b1-3)GlcNAc(b1-2)Man(a1-6)]Man(b1-4)GlcNAc(b1-4)GlcNAc
# Outline: as §1
# [27] = target: Gal(a1-3)Gal(b1-3)GlcNAc(b1-3)GalNAc
# Outline: as §1
# [28] = target: Gal(a1-3)Gal(b1-3)GlcNAc(b1-6)GalNAc
# Outline: as §1
# [29] = target: Gal(a1-3)Gal(b1-3)[Fuc(a1-4)]GlcNAc(b1-2)Man(a1-3)[Gal(a1-3)Gal(b1-3)[Fuc(a1-4)]GlcNAc(b1-2)Man(a1-6)]Man(b1-4)GlcNAc(b1-4)GlcNAc
# Outline: as §1
# [30] = target: Gal(a1-3)Gal(b1-4)Glc
# Outline: as §1
binder,measurement,setting,value
B1,glycan array binding signal (z-score),[1],-0.639
same,glycan array binding signal (z-score),[2],0.271
same,glycan array binding signal (z-score),[3],0.425
same,glycan array binding signal (z-score),[4],-0.379
same,glycan array binding signal (z-score),[5],1.67
same,glycan array binding signal (z-score),[6],0.284
same,glycan array binding signal (z-score),[7],-0.812
same,glycan array binding signal (z-score),[8],0.843
same,glycan array binding signal (z-score),[9],-0.092
same,glycan array binding signal (z-score),[10],-0.384
same,glycan array binding signal (z-score),[11],2.27
same,glycan array binding signal (z-score),[12],1.07
same,glycan array binding signal (z-score),[13],-0.804
same,glycan array binding signal (z-score),[14],1.05
same,glycan array binding signal (z-score),[15],0.062
same,glycan array binding signal (z-score),[16],0.105
same,glycan array binding signal (z-score),[17],-0.375
same,glycan array binding signal (z-score),[18],0.243
same,glycan array binding signal (z-score),[19],0.11
same,glycan array binding signal (z-score),[20],-0.26
same,glycan array binding signal (z-score),[21],-0.411
same,glycan array binding signal (z-score),[22],-0.279
same,glycan array binding signal (z-score),[23],-0.907
same,glycan array binding signal (z-score),[24],1.29
same,glycan array binding signal (z-score),[25],-0.789
same,glycan array binding signal (z-score),[26],-0.669
same,glycan array binding signal (z-score),[27],0.273
same,glycan array binding signal (z-score),[28],-0.383
same,glycan array binding signal (z-score),[29],-0.719
same,glycan array binding signal (z-score),[30],-0.655

# Reprinted at random: 2 entries already listed
binder,measurement,setting,value
B1,glycan array binding signal (z-score),[5],1.67
same,glycan array binding signal (z-score),[30],-0.655
